8 molecules from patent WO2022244854A1 can be followed below.

These are yes or no findings as the source states them, for the method shown. Some results given as binding are weak or reduced against the parent protein; the word gives no strength.

In this assay the target is T1, CD206 antigen (purified extracellular region of mouse CD206, expressed in FreeStyle 293-F cells) (mouse) (UniProt Q61830).
T1 sequence (looked up): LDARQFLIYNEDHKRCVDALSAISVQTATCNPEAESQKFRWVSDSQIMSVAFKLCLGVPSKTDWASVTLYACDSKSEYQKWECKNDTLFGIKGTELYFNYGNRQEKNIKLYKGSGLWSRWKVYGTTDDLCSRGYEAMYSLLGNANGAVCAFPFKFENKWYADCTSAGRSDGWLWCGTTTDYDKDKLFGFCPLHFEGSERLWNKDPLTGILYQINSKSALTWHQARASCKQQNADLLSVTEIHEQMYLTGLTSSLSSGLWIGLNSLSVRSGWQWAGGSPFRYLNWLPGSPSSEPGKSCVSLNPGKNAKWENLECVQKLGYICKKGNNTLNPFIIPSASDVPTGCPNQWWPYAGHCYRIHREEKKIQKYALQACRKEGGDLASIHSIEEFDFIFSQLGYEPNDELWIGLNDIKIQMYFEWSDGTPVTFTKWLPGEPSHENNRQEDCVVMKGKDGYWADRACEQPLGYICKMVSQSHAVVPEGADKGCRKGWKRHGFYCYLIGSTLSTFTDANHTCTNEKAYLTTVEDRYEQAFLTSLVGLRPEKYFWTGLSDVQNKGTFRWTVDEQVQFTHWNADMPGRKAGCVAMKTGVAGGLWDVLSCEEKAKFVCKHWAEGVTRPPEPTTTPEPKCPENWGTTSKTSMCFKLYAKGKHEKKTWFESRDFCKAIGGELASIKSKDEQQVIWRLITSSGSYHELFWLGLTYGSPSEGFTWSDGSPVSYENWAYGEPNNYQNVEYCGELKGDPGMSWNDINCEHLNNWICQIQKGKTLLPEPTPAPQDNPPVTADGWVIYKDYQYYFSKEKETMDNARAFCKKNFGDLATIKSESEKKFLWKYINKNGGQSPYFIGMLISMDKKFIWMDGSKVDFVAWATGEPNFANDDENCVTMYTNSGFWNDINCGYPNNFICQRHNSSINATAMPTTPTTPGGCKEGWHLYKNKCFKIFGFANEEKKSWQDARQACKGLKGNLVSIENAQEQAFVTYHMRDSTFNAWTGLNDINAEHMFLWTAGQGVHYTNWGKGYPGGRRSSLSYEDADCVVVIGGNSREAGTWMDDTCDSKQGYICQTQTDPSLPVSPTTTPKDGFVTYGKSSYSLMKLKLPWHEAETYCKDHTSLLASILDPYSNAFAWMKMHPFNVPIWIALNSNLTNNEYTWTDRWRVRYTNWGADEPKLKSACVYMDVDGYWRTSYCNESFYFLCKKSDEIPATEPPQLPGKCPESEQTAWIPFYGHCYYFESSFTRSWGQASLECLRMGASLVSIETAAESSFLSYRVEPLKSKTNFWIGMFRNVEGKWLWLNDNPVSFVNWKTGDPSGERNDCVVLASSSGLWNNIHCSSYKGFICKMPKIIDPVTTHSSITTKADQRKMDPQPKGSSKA
Put plainly: ELISA, CD206 antigen immobilised on the plate. On the technique in general: An ELISA detects its analyte on a solid surface through an enzyme-linked reagent.

B1: anti-CD206 antibody (No.27) (antibody, V domains shown)
VH: QVQLQQPGAELVKPRASVKLSCRASGYIFISYWMQWVKQRPGQGLEWIGEIDPSDSYINYNQKFKGKASLTVDTSSNTAYMQLSSLTSEDSAVYYCATGDMGDDFYAMDYWGQGTSVTVSS
VL: DIVMNQDELSNPVTSGESVSISCRSSKSLLYKDGKTYLNWFLQRPGQSPQLLIYLMSTRASGVSDRFSGSGSGTDFTLEISRVKAEDVGVYYCQQLVEYPFTFGGGTKLEIK
For the molecule B1, the binding result was “binds”.

B2: anti-CD206 antibody (No.35) (antibody, V domains shown)
VH: QVQLQQPGAELVKPGASVKVSCKASGYTFTTYWMHWVKQRPGQGLEWIGRIHPSDSDSNYNQKFKGKATLTVDKSSSTAYMQLSSLTSEDSAVYYCAIGRGFAYWGQGTLVTVSA
VL: DIVLTQSPASLAVSLGQRAAISCRASESVDNYGNSFMHWYQQKPGQPPKLLIYRASNLESGIPARFSGSGSRTDFTLTINPVEADDVATYYCQQGNEDPYTFGGGTKLEIK
Regarding B2, the binding entry is “binds”.

B3: anti-CD206 antibody (No.44) (antibody, V domains shown)
VH: QVQLQQSGAELVRPGTSVKVSCKASGYAFTDYLIEWVKQRPGQGLEWIGVINPGRGGTNYNEKFKGKATLTADKSSSTAYMQLSSLTSEDSAVYFCARYYGRSFGYFDVWGTGTTVTVSS
VL: DIQMTQSPASQSASLGESVTITCLASQTIGTWLAWYQQKPGKSPQLLIYAATSLADGVPSRFSGSGSGTKFSFKISSLQAEDFVSYYCQQLYSPPLTFGAGTKLELK
In the case of B3, the binding result is “binds”.

B4: anti-CD206 antibody (No.72) (antibody, V domains shown)
VH: QVQLQQPGAELVRPGSSVKLSCKASGYTFTTYWMHWVKQRPIQGLEWIGNIDPSDSETHYNQKFKDKATLTVDKSSSTAYMQLNSLTSEDSAVYYCARGDGYYVYFAYWGQGTTLTVSS
VL: EIVLTQSPALMAASPGEKVTITCSVSSSISSSNLHWYQQKSETSPKPWIYATSNLASGVPVRFSGSGSGTSYSLTISSMAAEDAATYFCQQWSSFPLTFGAGTKLELK
As for B4, the binding result is on record as “binds”.

B5: anti-CD206 antibody (No.83) (antibody, V domains shown)
VH: QVQLLQSGAELVRPGTAVKMSCKASEYTFTNYWIGWARQRPGHGLEWIGDIYPGGGYINYNEKFKGKATLTADKSSSTVYMQFSSLTSEDSAIYYCARGGSNYVGHFDYWGQGTTLTVSS
VL: DIQMTQTTSSLSASLGDRVTISCRASQDISNYLNWYQQKPDGTVKLLIYYTSILHSRVPSRFSGSGSGTDYSLTISNLEQEDIATYFCQHGHTLPWTFGGGTKLEIK
Take B5: the binding entry is reported as “binds”.

B6: anti-CD206 antibody (No.10) (antibody, V domains shown)
VH: QVQLQQPGAELVRPGSSVKLSCKASGYTFISYWMDWVKQRPGQGLEWIGNIFPSDSETHYNQKFRDKATLTVDKSSSTASIHLSSLTSEDSAVYYCGRRDSSGWIDYWGQGTTLTVSS
VL: DIQMTQTTSSLSASLGDRVTISCRASQDISNYLNWYQQKPDGTVKLLIYYTSRFHSGVPSRFSGSGSGTDYSLTIHNVEQEDIATYFCQQSSMLPFTFGSGTKLEMK
On to B6, for which the binding result is “binds”.

B7: anti-CD206 antibody (No.47) (antibody, V domains shown)
VH: QVQLQQPGAELVRPGSSVKLSCKASGYTFTSYWMDWVKQRPGQGLEWIGNIYPSDSETHYNQKFKDRATLTVDKSSTTAYMQLSSLTSEDSAVYYCTRRDSSGWIDYWGQGTTLTVSS
VL: DIQMTQTTSSLSASLGDRVTISCRASQDISNYLNWYQQKPDGTVKLLIYYTSRLHSGVPSRFSGRGSGTDYSLTISNLEQEDIATYFCQQGNTLPFTFGSGTQLEIK
As for B7, the binding entry is on record as “binds”.

B8: anti-CD206 antibody (No.54) (antibody, V domains shown)
VH: EVQLVESGGGLVQPKGSLKLSCAASGFSFNTYTMNWVRQAPGKGLEWVARIRSKSNNYETYYADSVKDRFTISRDDSESMLYLQMNNLKTEDTAMYYCVSPDSDSWFAYWGQGTLVTVSA
VL: DIQMNQSPSSLSASLGDTITIACHASQNINVWLSWYQQKPGNIPKLLIYKASNLHTGVPSRFSGSGSGTGFTLTISSLQPEDIATYYCQQGQSYPLTFGGGTKLEIK
In the case of B8, the binding result was “binds”.
